Measured values reported in the supplement of paper PMC10849652.
The list shows a part of the results.

By UniProt entry, the sequences of proteins in these tests, tags left out. Where a name states a change or a piece, a line headed by the entry shows the natural chain unless it says otherwise.
UniProt Q6P3S1: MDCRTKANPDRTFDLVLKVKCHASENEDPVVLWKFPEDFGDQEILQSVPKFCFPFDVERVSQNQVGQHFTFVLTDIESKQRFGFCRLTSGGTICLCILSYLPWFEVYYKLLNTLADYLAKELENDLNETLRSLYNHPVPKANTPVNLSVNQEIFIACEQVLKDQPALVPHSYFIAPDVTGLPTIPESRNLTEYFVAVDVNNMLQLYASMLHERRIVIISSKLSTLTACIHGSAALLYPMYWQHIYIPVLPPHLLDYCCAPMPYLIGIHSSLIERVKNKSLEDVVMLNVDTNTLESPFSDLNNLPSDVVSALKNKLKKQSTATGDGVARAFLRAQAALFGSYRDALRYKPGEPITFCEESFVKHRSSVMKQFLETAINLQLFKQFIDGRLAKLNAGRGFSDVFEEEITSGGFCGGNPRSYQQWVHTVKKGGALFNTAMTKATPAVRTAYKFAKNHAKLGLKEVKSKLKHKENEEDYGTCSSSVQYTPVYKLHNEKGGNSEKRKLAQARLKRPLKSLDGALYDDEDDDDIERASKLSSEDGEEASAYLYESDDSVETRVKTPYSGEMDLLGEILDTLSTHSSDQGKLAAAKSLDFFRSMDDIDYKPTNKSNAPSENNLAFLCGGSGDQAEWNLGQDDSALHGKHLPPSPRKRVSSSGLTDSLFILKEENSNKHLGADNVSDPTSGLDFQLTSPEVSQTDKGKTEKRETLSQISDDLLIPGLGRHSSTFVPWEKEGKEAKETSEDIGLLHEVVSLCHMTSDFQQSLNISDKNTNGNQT
UniProt Q8NEL9: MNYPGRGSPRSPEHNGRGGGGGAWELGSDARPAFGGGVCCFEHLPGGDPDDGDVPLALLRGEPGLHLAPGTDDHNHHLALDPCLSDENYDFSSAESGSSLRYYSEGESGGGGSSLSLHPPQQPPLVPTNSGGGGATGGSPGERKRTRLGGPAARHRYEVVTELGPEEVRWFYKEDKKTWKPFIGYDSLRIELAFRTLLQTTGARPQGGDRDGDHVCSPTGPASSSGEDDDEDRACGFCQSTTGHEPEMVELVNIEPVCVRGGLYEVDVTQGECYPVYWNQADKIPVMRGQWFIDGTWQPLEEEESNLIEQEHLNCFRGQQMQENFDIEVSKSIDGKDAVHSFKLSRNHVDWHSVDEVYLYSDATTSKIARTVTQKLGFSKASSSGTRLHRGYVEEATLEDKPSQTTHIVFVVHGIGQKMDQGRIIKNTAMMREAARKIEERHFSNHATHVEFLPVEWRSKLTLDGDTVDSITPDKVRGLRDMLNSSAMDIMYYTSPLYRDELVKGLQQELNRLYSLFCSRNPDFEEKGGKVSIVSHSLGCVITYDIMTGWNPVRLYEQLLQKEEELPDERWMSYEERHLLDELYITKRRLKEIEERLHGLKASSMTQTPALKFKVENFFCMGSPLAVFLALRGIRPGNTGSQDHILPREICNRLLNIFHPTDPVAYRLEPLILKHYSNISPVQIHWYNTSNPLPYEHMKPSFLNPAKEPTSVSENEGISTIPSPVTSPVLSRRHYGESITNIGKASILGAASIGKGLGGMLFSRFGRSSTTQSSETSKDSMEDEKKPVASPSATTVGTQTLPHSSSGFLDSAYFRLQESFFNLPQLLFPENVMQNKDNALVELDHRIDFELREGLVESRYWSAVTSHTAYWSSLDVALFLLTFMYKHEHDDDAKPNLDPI
UniProt Q9H2U1: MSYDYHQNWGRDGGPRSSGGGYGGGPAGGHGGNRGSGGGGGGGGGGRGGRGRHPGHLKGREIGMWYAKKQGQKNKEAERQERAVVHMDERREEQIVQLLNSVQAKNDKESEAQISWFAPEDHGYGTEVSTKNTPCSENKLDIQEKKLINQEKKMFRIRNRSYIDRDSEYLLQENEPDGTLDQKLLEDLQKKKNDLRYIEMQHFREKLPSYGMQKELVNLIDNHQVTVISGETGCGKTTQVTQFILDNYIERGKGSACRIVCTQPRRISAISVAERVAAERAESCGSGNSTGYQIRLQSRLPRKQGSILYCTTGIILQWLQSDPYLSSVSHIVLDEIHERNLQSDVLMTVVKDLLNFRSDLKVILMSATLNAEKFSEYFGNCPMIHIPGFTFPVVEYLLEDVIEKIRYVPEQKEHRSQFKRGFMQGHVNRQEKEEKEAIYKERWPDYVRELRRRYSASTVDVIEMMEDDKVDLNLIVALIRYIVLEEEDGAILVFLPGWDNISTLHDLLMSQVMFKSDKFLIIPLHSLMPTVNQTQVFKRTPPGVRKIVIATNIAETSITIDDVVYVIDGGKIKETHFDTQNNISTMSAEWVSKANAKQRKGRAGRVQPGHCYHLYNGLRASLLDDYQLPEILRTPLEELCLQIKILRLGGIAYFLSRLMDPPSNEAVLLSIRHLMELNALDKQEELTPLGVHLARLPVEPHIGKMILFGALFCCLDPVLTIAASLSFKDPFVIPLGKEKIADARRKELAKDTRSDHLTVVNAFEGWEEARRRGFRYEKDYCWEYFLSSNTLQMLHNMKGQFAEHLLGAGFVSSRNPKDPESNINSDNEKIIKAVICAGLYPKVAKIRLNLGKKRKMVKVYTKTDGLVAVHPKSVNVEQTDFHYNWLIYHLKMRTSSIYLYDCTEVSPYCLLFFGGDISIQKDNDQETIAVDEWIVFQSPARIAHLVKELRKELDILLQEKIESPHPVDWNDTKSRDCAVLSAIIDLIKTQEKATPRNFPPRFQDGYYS
UniProt P51530: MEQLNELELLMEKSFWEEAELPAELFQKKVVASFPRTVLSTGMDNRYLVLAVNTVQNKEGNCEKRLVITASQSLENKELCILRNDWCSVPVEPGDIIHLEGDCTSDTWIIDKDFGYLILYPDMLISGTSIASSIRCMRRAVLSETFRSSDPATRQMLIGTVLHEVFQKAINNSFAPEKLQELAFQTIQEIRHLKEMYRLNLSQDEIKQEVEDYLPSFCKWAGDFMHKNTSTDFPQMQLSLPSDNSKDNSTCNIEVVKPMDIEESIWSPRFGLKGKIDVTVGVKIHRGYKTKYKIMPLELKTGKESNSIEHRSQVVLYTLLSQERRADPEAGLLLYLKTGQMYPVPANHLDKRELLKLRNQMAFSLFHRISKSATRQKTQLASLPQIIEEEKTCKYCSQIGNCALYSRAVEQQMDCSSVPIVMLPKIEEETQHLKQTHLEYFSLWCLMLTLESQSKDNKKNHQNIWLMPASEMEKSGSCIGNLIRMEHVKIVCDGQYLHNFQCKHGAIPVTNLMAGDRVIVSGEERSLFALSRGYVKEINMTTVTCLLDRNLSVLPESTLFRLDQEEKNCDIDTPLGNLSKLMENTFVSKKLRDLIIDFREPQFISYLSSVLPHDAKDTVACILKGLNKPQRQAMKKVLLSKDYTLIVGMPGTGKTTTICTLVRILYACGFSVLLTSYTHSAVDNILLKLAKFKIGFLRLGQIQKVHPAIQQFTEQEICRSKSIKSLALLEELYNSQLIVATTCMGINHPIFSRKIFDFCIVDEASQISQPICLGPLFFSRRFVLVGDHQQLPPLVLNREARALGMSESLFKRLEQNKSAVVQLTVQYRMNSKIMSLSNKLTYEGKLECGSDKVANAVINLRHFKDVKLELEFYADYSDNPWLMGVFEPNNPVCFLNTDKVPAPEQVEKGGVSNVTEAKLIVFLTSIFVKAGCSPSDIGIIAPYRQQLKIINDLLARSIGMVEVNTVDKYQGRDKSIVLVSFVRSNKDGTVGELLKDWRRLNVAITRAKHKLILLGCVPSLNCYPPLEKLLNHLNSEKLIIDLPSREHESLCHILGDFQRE

What was measured:
Assay in all cases: log2 fold change, soluble protein after heating vs DMSO (PISA); higher = thermal stabilisation; K562 cells, 10 uM, 30 min; active = over 0.2 and 3.5 SD of the protein, either way, in both replicates (recomputed)
[1] = compound: CS(=O)(=O)c1ccc(-c2cnc(N)c(C(=O)Nc3ccccc3)n2)cc1
Method in brief: (§1)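 Thermal stability values are relative to control samples and come from duplicates. They are expressed as log2 fold changes. For measurement, K562 cells (2×10^6 cells/mL) received 10 μM compound for 30 min, and aliquots were heated for 3 min over 48°C-58°C, pooled, and extracted at 4°C in PBS with 0.5% NP-40. Soluble protein, the supernatant after 21,000xg for 90 min, was quantified by TMTpro 16plex LC-MS/MS with equalised channel sums.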

crizotinib = compound: C[C@@H](Oc1cc(-c2cnn(C3CCNCC3)c2)cnc1N)c1c(Cl)ccc(F)c1Cl [crizotinib]
Method in brief: as §1

[2] = compound: C[C@@H]1COCCN1C2=NC(=NC(=C2)C3(CC3)S(=O)(=O)C)C4=C5C=CNC5=CC=C4
Method in brief: as §1

[3] = compound: C[C@H](C1=CC=C(C=C1)C(=O)NC2=C3C=CNC3=NC=C2)N
Method in brief: as §1

duvelisib = compound: C[C@H](Nc1ncnc2nc[nH]c12)c1cc2cccc(Cl)c2c(=O)n1-c1ccccc1 [duvelisib]
Method in brief: as §1

[4] = compound: Cc1cc(SCc2sc(-c3ccc(C(F)(F)F)cc3)nc2C)ccc1OCC(=O)O
Method in brief: as §1

doramapimod = compound: Cc1ccc(-n2nc(C(C)(C)C)cc2NC(=O)Nc2ccc(OCCN3CCOCC3)c3ccccc23)cc1 [doramapimod]
Method in brief: as §1

bafetinib = compound: Cc1ccc(NC(=O)c2ccc(CN3CC[C@H](N(C)C)C3)c(C(F)(F)F)c2)cc1Nc1nccc(-c2cncnc2)n1 [bafetinib]
Method in brief: as §1

nilotinib = compound: Cc1cn(-c2cc(NC(=O)c3ccc(C)c(Nc4nccc(-c5cccnc5)n4)c3)cc(C(F)(F)F)c2)cn1 [nilotinib]
Method in brief: as §1

[5] = compound: Cc1nc(Nc2n[nH]c3c2CN(C(=O)N[C@H](CN(C)C)c2ccccc2)C3(C)C)c2sccc2n1
Method in brief: as §1

dasatinib = compound: Cc1nc(Nc2ncc(C(=O)Nc3c(C)cccc3Cl)s2)cc(N2CCN(CCO)CC2)n1 [dasatinib]
Method in brief: as §1

[6] = compound: Cc1ncc(-c2ccnc(Nc3ccc(S(C)(=O)=O)cc3)n2)n1C(C)C
Method in brief: as §1

[7] = compound: Cn1cc(-c2ccc3c(c2)CCN3C(=O)Cc2cccc(C(F)(F)F)c2)c2c(N)ncnc21
Method in brief: as §1

tipifarnib = compound: Cn1cncc1[C@@](N)(c1ccc(Cl)cc1)c1ccc2c(c1)c(-c1cccc(Cl)c1)cc(=O)n2C [tipifarnib]
Method in brief: as §1

mubritinib = compound: FC(F)(F)c1ccc(/C=C/c2nc(COc3ccc(CCCCn4ccnn4)cc3)co2)cc1 [mubritinib]
Method in brief: as §1

gandotinib = compound: Cc1cc(Nc2cc(CN3CCOCC3)c3nc(C)c(Cc4ccc(Cl)cc4F)n3n2)n[nH]1 [gandotinib]
Method in brief: as §1

ispinesib = compound: Cc1ccc(C(=O)N(CCCN)[C@@H](c2nc3cc(Cl)ccc3c(=O)n2Cc2ccccc2)C(C)C)cc1 [ispinesib]
Method in brief: as §1

[8] = compound: Cc1cccc(CC(=O)N2CCc3c2ccc(-c2cn(C)c4ncnc(N)c24)c3F)n1
Method in brief: as §1

[9] = compound: Cn1cc(-c2ccc3nnc(C(F)(F)c4ccc5ncccc5c4)n3n2)cn1
Method in brief: as §1

Measured: log2 fold change

DENND1B (UniProt Q6P3S1)
inactive: [1] -0.05 | crizotinib -0.028 | [2] 0.05 | [3] 0.024 | duvelisib -0.008 | [4] 0.005 | doramapimod -0.102 | bafetinib 0.001 | nilotinib -0.365 | [5] -0.124 | dasatinib 0.037 | [6] -0.039 | [7] -0.005 | tipifarnib 0.029 | mubritinib 0.038

DDHD1 (UniProt Q8NEL9)
inactive: [1] -0.047 | crizotinib 0.006 | duvelisib 0.196 | gandotinib 0.012 | [4] 0.424 | doramapimod 0.068 | ispinesib -0.096 | bafetinib -0.197 | [8] -0.147 | dasatinib -0.647 | [9] 0.168 | tipifarnib 0.119

DHX36 (UniProt Q9H2U1)
inactive: [1] -0.071 | crizotinib -0.101 | [2] -0.062 | [3] 0.2 | gandotinib 0.069 | [4] 0.045 | doramapimod 0.051 | ispinesib -0.081 | bafetinib 0.065 | [8] 0.015 | nilotinib -0.066 | [5] 0.052 | dasatinib -0.01 | [6] 0.045 | [7] -0.076 | [9] -0.059 | tipifarnib 0.002 | mubritinib -0.128

DNA2 (UniProt P51530)
inactive: [1] 0.14 | crizotinib 0.169 | [2] -0.078 | gandotinib -0.331 | doramapimod 0.037 | bafetinib 0.042 | [8] 0.08 | nilotinib -0.314 | [5] -0.342 | [6] -0.151 | tipifarnib 0.076
